Sequences of proteins named here, by UniProt entry; tags and fusion partners are left off. A change or cut given only in a name is not applied to a line headed by its entry.
UniProt Q5JE61: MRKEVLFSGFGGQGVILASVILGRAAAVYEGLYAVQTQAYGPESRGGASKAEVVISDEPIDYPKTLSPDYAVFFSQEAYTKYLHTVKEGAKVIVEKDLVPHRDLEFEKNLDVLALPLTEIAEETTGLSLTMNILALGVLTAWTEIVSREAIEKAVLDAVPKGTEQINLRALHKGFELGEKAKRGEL

According to publication PMC12016516:

Experiments:
Experiment in all cases: affinity purification with mass spectrometry; HA- and His6-tagged bait made from its native locus, captured from clarified T. kodakarensis lysate on a Ni2+-charged chelating column (buffer A: 10 mM Tris HCl pH 8.0, 500 mM NaCl, 10% glycerol), eluted with an imidazole gradient; pooled fractions identified by MuDPIT LC-MS/MS and compared with the parental strain TS559 (P < 0.05, log2 fold change ≥ 2); cells grown at 85°C with (+S˚) or without (–S˚) elemental sulfur
[1] = target: 2-Oxoacid:ferredoxin oxidoreductase, γ1 subunit (Thermococcus kodakarensis) (UniProt Q5JE61)
[2] = target: T1, Indolepyruvate-Fd oxidoreductase, α subunit (Thermococcus kodakarensis) (UniProt O07835)
T1 sequence: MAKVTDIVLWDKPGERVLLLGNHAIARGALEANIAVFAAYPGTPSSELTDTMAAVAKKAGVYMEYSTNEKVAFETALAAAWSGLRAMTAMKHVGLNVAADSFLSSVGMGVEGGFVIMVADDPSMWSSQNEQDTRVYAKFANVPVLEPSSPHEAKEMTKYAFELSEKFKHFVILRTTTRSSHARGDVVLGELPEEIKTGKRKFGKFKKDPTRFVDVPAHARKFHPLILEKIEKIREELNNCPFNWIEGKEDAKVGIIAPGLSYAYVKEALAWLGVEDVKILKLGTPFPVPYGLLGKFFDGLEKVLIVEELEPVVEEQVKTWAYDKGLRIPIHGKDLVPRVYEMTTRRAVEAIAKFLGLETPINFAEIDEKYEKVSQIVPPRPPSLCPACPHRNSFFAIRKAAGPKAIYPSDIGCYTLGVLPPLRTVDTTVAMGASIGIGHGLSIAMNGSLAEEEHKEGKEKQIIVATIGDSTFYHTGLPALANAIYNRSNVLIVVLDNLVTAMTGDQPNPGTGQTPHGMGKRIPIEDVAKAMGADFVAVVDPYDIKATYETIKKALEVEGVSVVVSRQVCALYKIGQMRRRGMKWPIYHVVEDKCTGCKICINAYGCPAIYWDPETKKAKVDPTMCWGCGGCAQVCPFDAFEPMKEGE

[3] = target: T2, Membrane-bound sulfane reductase, NiFe-hydrogenase large subunit 2, MBS-L (Thermococcus kodakarensis) (UniProt Q5JGG2)
T2 sequence: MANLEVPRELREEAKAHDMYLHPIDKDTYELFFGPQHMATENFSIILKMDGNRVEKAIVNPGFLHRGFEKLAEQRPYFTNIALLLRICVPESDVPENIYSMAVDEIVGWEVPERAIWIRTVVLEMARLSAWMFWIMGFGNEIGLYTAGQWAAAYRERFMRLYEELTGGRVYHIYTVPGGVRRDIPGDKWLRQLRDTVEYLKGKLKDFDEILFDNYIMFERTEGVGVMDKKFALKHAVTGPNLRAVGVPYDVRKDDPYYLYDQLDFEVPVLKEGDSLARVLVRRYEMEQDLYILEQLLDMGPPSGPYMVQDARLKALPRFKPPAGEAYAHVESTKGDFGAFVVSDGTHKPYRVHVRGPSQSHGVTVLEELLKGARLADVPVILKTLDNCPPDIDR

B1: OGORβ1 (TK1124) (protein, UniProt Q5JE60 1-281)
chain: MYLKSAYEIREKYLRKDMLPTIFCPGCGIGSVLQFTLRAIDDLGLNQDEIVWVSGIGCSSRVPGFVNFDGLHTTHGRALAFATGIKLTNPDLKIIAFMGDGDAAAIGGNHLIHAIRRNLDVTVILINNFTYGMTGGQVAPTALKGLKGTTAPYGQFENPFDIAQLAVSAGANYVARWTVFNYLQGINSIKKALQKEGFTLVEFLSPCPISFGRRNRMKTAPELIRWYQKITVPLAKAKKMSPEELEGKIVIGEFADRDRPGLVREYREYIKRAKKMMGWEE
binding [1]: binds

B2: 2-Oxoacid:ferredoxin oxidoreductase, α2 subunit (protein, UniProt Q5JE85 1-396)
chain: MIIRGDEPEQIRLIKKLYKPGNYFMQGNEAVAYGAIFAGCRFYAGYPITPSSEIAETMARELPKLGGYYLQMEDEIGSIAAMVGASWTGLKVMTATAGPGFSLMQENLGYAVMTETPLVLVDVQRSGPSTGQATKGAQGDFFQARWGTHGDHPIIALSPTSGQDAFWEIIRAFNIAERLRTPVVMLFDGVLAHTRELVKIPDVEEVEITYRKLPQNEEEARLPFGDPHGDGVPPMPLFGHGYFTHVTGSTHKENGLRDVYTPEVHDRLVRRLHRKIEQNRHVYEKYEEYFTDDAEILVVSWGVTARPALGAVLKAREEGIKAGLFVPKTVHPFPGERMRALGKKVRAVLVPEMNLGQMILEVQRYVNDDVLLKGVNKIGGVPLTVNEILREIRGVA
binding [1]: binds

B3: OGORδ (TK1131) (protein, UniProt Q5JE84 1-90)
chain: MADVETKTTVEKEGYLVIGKAEGIVEIDIDTFLCKGCGICVEMCPRKVFEWSKELSEKGVHYPVPVNAEKCVKCKLCELLCPDFAIAVRW
binding [1]: binds

B4: Indolepyruvate-Fd oxidoreductase, β subunit (protein, UniProt O07836 1-202)
chain: MKEYNIVITGVGGQGILTAANLLGWAALRAGYKVRVGEVHGMSQRFGSVIAYVRFGEDVYGAMVPEGKADVILSFEPVEALRYINYLKKGGLVFTNARPIPPVQVSMGLATYPTLDEMKKIVEEDFGGKFMAFDAEKLAMEAGNIVTTNVVLIGALSQTPGFPLSEEQIKEVIRISVPPKTIDVNMRAFELGVKAAKEMLGL
binding [2]: binds

B5: membrane-bound hydrogenase, [4Fe-4S] cluster-binding subunit, MBH-N (protein, UniProt Q5JIL1 1-143)
chain: MKAPILVPVVLRNLFKKPATNRFPQTEPVPIPEDFRGMIAYNVDKCVGCRMCVNVCPAGVFVYLPEIRKVALWTARCVYCGQCVDVCPTGALQLSKDFLLASYDNHDDRFIPLKPEKVEEIKRKLEEQKKAKEAAKKEKEGKA
binding [3]: binds

B6: glycerol-1-phosphate dehydrogenase [NAD(P)+] (TK0789) (protein, UniProt Q5JH91 1-351)
chain: MERRIHLMQLPREVLLGENLTGEVVSVAKRIGLTGKALVIYGPKTKEIAGRDVEDAIKSAYEVSSLTIRKGATMEEVERTIEKIKDEGIGWVIAVGGGSIIDVAKLSSFKTGVPFISFPTTASHDGIASANASIKDLGSKTSVKAVPPVAVIADVKVIKTAPYRYLAAGVGDTISNLTAVRDWQLAHRIKGEYYSEYAASLSLMSAKMVMRNADIIRLGNEESVRKVIKALISTGVAMSIAGSSRPASGAEHLFSHALDMLLDKPALHGEQTGLGTIIMAYLHGMKWERVRETLKRVGAPTNAYELGIDPEVIIEALTIAHTIRPERYTILGKDGLTREAAEKAAKITGVI
binding [3]: binds

B7: uncharacterized protein (TK0930) (protein, UniProt Q5JI89 1-276)
chain: MRLIVRGKHIRDSLAAELRKEGIKFEVRERLGYDGFIGYMLTGTLDEIEKAVESIEGVDRDALREGFMSFKESVTHILEHLKVGEDAEKLLMEGAWVGDILDQLHRAGVLDYDGKTVKLREGVDPSSIRFEFKFPFNIVHNPEEAEKVAKQFVFTDLLPEYEFEFLELDIARINKIGSIAGRYFPEDVLLKAYFALISRGILAEEILRVLKDGKIPEEELIKSFMRAAPMAIPTPKGTLVINYSKEAIEETLKLLKKLGYIEIKGGKVRKIREMGE
binding [3]: binds

B8: predicted ATPase, AAA superfamily, containing PIN and KH nucleic acid-binding domains (TK0953) (protein, UniProt Q5JI99 1-602)
chain: MRVLVPDTSVIVDGRLTQFLSTLGEKVKVVVPEAVVAEIEHQANEGKAIGHVGLEELKKLREMADRGEILLEFYGERPDLWQIRRAKAGEIDNMVREVAQTLSATLVTGDQVQRDIAIAKGIDVIYLTTKKEVRHRLEDFFDDTTMSVHLKAGIRPLAKKGRPGEWRLVPVRDEPLTDVELEEIADDIVERAKRDPESFIELDEPGATVVQLRNYRIVIAKPPFSDRIEITAVRPITKLSIEDYELSERLLERLRDKAAGILIAGAPGEGKTTFAQALAEWYASMGKIVKTMEKPRDLQVSEEITQYTALKGSMELTGDILLLVRPDYTIFDEMRKTSDFKIYSDLRLAGVGMIGVVHATKPIDAIQRFIGRVELGMIPQIVDTVIFIKAGRVAKVLTLEYLVKVPSGMKEEDLARPVIEVRDFETGELEYEIYTYGEEVSVVPVKKEEKAPALRLAEKRLKQEIKKFLPDVNAEVEIVSPHKAVIYADEFDIPAIIGKKGKRITELEKRIGISIDVKSFAEREELKPKERIPVEVEEKKKTIVLRVSPEYAKKPLKFYGGEQYVFTATPSRKGLVKVSKSTPIGKELKRLLDAGIPIWAST
binding [3]: binds

B9: tRNA (1-methyladenosine) methyltransferase (TK1328) (protein, UniProt Q5JGS7 1-253)
chain: MISVGDRVLLVDPRGKRYLVKVEDKEFHTDLGILNLGELIGKPYGAKIQSHRGETFTALKPDINDIIAKMRRGPQIVHPKDAGIIIAYAGISPGDTVIEAGAGSGALTIFLANAVGPTGKVISYEVRKDFYEIAKKNVELAGFSDRVVLKNKSIYDGIDEKEADHIVLDLPQPENVLPHAVDVLRPGGYFVAYTPCMNQVHRFFRALEEFKGEFMRPRVVEVLVREQEVKRECMRPKTTMLAHTGYITFLRKL
binding [3]: binds

B10: enolase (TK2106) (protein, UniProt Q5JEV6 1-430)
chain: MENPFEITNVIAREILDSRGNPTVEVEVYTPISMGRAAVPSGASTGTHEALELRDGGSRYHGKGVRRAVENVNKIIAPEIIGMDVTWQRDIDTLMLELDGTENKSNLGANAILGVSLAVAKAAANALGLPLYQYIGGTNAYVMPVPMSNVINGGVHAGNELDFQEFMIMPVGADSFREAIRWVSETYHVLKKVIMEKYGRNAVNVGDEGGFAPPMKEVTEPLDVLIKAIEEAGYKPGDEIAFALDAASSEFFDGEKGKYVVAGKEYDKGELLELYRELVTTYPIVSIEDPFHEEDWEGFVMITKELGSKVQIVGDDLFVTNPKRIRKGIEMGAANALLLKVNQIGTLSEAIDAAYTSFRAGYGVVVSHRSGETEDATIADLAVALNAGQIKTGAPARSDRNAKYNQLIRIEEELEGIAVYPGKKFRNPFL
binding [3]: binds

Results are given in words; binding and its absence hold for the method and conditions named. Binding seen in cells or lysates may run through a third protein. Here binding means that the protein was enriched with, or labelled near, the bait; the list need not be complete.
